Laboratory results taken from publication PMC10761038.
No constants are given. Whether binding was seen depends on the method and setting. In cells and extracts the contact can be indirect. A result given as binding can be weak or reduced; the word gives no strength.

Amino acid sequences for entries named in this document (tags omitted). A change or cut given only in a name is not applied to a line headed by its entry.
UniProt Q14160: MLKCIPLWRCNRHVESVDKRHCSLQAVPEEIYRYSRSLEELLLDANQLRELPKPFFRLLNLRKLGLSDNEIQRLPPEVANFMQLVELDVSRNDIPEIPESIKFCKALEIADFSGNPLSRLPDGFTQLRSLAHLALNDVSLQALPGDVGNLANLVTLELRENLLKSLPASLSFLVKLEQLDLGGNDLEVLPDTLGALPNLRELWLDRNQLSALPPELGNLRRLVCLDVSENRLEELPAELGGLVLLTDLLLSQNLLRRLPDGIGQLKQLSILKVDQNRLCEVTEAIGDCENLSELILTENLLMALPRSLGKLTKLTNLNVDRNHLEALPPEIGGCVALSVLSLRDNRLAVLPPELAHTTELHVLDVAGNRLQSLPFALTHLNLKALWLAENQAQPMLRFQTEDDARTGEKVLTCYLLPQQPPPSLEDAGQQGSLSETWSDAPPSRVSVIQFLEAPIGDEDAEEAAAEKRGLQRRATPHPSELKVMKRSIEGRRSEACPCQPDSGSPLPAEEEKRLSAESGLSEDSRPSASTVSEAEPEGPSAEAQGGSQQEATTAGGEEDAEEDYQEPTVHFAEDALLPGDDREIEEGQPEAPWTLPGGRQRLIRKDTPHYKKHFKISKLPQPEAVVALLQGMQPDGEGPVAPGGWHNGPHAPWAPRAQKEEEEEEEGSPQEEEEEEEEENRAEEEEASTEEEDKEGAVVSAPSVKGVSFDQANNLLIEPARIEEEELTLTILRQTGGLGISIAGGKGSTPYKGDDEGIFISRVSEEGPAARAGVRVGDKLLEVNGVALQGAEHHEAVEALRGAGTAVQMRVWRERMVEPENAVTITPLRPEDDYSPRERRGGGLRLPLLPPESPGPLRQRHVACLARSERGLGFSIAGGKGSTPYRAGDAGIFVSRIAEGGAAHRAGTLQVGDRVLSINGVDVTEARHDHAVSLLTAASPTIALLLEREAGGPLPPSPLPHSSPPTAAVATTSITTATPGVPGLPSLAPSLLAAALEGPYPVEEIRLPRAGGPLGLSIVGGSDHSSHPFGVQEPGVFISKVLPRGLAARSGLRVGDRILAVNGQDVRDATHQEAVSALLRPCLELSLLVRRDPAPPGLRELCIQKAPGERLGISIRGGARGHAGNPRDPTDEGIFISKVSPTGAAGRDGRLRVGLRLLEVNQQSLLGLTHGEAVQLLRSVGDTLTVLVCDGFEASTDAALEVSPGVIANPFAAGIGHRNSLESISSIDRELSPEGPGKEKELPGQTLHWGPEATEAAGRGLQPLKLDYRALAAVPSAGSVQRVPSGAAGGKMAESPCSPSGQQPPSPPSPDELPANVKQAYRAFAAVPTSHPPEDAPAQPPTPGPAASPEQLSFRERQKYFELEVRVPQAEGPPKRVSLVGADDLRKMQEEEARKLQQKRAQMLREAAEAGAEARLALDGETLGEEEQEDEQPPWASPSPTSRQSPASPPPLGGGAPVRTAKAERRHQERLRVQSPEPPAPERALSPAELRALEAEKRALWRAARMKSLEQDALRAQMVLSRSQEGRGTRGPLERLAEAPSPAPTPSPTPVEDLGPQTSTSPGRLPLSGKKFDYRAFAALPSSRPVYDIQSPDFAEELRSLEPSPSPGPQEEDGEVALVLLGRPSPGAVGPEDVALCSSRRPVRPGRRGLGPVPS
UniProt P35221: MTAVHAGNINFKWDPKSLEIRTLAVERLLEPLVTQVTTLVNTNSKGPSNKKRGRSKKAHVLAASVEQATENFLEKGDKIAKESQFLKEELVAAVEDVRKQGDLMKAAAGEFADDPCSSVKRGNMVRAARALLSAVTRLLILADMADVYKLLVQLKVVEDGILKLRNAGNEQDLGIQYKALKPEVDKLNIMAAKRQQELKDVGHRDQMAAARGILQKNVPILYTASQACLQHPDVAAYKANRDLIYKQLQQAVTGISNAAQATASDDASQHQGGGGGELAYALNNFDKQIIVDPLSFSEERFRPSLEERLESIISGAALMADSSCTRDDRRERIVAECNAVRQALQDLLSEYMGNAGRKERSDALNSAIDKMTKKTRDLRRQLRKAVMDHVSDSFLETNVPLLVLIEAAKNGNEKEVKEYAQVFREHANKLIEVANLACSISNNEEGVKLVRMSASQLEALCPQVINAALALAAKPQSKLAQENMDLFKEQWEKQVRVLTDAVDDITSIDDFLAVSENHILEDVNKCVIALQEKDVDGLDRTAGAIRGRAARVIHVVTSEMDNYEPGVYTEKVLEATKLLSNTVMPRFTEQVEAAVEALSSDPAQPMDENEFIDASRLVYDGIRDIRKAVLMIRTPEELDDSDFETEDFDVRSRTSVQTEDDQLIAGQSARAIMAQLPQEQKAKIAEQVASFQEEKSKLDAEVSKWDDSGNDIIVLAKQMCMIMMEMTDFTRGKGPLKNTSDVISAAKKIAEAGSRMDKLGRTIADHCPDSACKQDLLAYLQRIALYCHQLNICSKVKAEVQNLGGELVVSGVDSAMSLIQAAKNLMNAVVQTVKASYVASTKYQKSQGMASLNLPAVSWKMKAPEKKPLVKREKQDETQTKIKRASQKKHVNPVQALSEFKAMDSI

B1: Lgl1 (endogenous) (protein, UniProt Q15334 1-1064)
chain: MMKFRFRRQGADPQREKLKQELFAFNKTVEHGFPNQPSALAFDPELRIMAIGTRSGAVKIYGAPGVEFTGLHRDAATVTQMHFLTGQGRLLSLLDDSSLHLWEIVHHNGCAHLEEALSFQLPSRPGFDGASAPLSLTRVTVVLLVAASDIAALGTEGSSVFFLDVTTLTLLEGQTLAPGEVLRSVPDDYRCGKALGPVESLQGHLRDPTKILIGYSRGLLVIWNQASQCVDHIFLGNQQLESLCWGRDSSTVVSSHSDGSYAVWSVDAGSFPTLQPTVATTPYGPFPCKAINKILWRNCESGGHFIIFSGGMPRASYGDRHCVSVLRAETLVTLDFTSRIIDFFTVHSTRPEDEFDDPQALAVLLEEELVVLDLQTPGWPAVPAPYLAPLHSSAITCSAHVASVPAKLWARIVSAGEQQSPQPVSSALSWPITGGRNLAQEPSQRGLLLTGHEDGTVRFWDASGVALRPLYKLSTAGLFQTDCEHADSLAQAAEDDWPPFRKVGCFDPYSDDPRLGVQKVALCKYTAQMVVAGTAGQVLVLELSDVPVEQAVSVAIIDLLQDREGFTWKGHERLSPRTGPLPWPAGFQPRVLVQCLPPAAVTAVTLHTEWSLVAFGTSHGFGLFDYQRKSPVLARCTLHPNDSLAMEGPLSRVKSLKKSLRQSFRRIRKSRVSGKKRAANASSKLQEANAQLAEQACPHDVEMTPVQRRIEPRSADDSLSGVVRCLYFADTFLRDGAHHGPTMWAGTNSGSVFAYALEVPAAAVGGEKRPEQAVEAVLGKEVQLMHRAPVVAIAVLDGRGRPLPEPYEASRDLAQAPDMQGGHAVLIASEEQFKVFTLPKVSAKTKFKLTAHEGCRVRKVALATFASVACEDYAETCLACLTNLGDVHVFSVPGLRPQVHYSCIRKEDISGIASCVFTRHGQGFYLISPSEFERFSLSARNITEPLCSLDINWPRDATQASYRIRESPKLSQANGTPSILLAPQSLDGSPDPAHSMGPDTPEPPEAALSPMSIDSATSADTTLDTTGDVTVEDVKDFLGSSEESEKNLRNLAEDEAHACAILIK

Biological target: GFP-Scrib (UniProt Q14160)
Assay: co-IP; A549 cell lysates (parental, stably expressing GFP-Scrib or Neon-Lgl1 forms, or tet-shLgl1 without Dox) in NP-40 buffer (20 mM Tris pH 8, 150-200 mM NaCl, 0.5 mM EDTA, 1% NP-40, 1 mM DTT, 5% glycerol); antibody 2 h at 4°C, protein A/G beads, three washes, Western blot; IgG as negative …

Molecule	binding
α-catenin (endogenous) (from UniProt P35221 1-906)	binds
B1	binds
